The target in this assay is Interleukin 32 (IL32) (Homo sapiens) (UniProt P24001). Description: affinity purification with mass spectrometry; endogenous IL-32 precipitated with IL-32 antibody (R&D) coupled to M-270 Dynabeads from pre-cleared lysates (1% CHAPS, 50 mM Tris, 150 mM NaCl) of JJN-3 cells kept 24 h in hypoxia (2% O2); 2 h at 4°C, 4 washes with PBS; IL-32 KO cells as control; 5 replicates.

Sequences of proteins named here, by UniProt entry; tags and fusion partners are left off. A change or cut given only in a name is not applied to a line headed by its entry.
UniProt P24001: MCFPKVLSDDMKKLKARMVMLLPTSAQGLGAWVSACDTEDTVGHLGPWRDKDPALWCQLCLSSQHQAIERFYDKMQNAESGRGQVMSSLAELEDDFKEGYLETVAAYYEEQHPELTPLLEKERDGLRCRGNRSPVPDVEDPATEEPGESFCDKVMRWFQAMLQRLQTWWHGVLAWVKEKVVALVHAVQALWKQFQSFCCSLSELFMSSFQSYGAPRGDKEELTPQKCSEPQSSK

Results are given in words; binding and its absence hold for the method and conditions named. Binding seen in cells or lysates may run through a third protein. These calls come from enrichment with a bait or labelling near it, and not all partners need be listed.

B1: Transglutaminase 3 (TGM3) (protein, UniProt Q08188 1-693)
chain: MAALGVQSINWQTAFNRQAHHTDKFSSQELILRRGQNFQVLMIMNKGLGSNERLEFIVSTGPYPSESAMTKAVFPLSNGSSGGWSAVLQASNGNTLTISISSPASAPIGRYTMALQIFSQGGISSVKLGTFILLFNPWLNVDSVFMGNHAEREEYVQEDAGIIFVGSTNRIGMIGWNFGQFEEDILSICLSILDRSLNFRRDAATDVASRNDPKYVGRVLSAMINSNDDNGVLAGNWSGTYTGGRDPRSWNGSVEILKNWKKSGFSPVRYGQCWVFAGTLNTALRSLGIPSRVITNFNSAHDTDRNLSVDVYYDPMGNPLDKGSDSVWNFHVWNEGWFVRSDLGPSYGGWQVLDATPQERSQGVFQCGPASVIGVREGDVQLNFDMPFIFAEVNADRITWLYDNTTGKQWKNSVNSHTIGRYISTKAVGSNARMDVTDKYKYPEGSDQERQVFQKALGKLKPNTPFAATSSMGLETEEQEPSIIGKLKVAGMLAVGKEVNLVLLLKNLSRDTKTVTVNMTAWTIIYNGTLVHEVWKDSATMSLDPEEEAEHPIKISYAQYEKYLKSDNMIRITAVCKVPDESEVVVERDIILDNPTLTLEVLNEARVRKPVNVQMLFSNPLDEPVRDCVLMVEGSGLLLGNLKIDVPTLGPKEGSRVRFDILPSRSGTKQLLADFSCNKFPAIKAMLSIDVAE
Take B1: the binding entry is given as “binds”.

B2: Immediate early response 3 interacting protein 1 (IER3IP1) (protein, UniProt Q9Y5U9 1-82)
chain: MAFTLYSLLQAALLCVNAIAVLHEERFLKNIGWGTDQGIGGFGEEPGIKSQLMNLIRSVRTVMRVPLIIVNSIAIVLLLLFG
B2: the binding result is on record as “binds”.

B3: Probable phospholipid-transporting ATPase IIB (protein, UniProt O43861-1 1-1147)
chain: MADQIPLYPVRSAAAAAANRKRAAYYSAAGPRPGADRHSRYQLEDESAHLDEMPLMMSEEGFENEESDYHTLPRARIMQRKRGLEWFVCDGWKFLCTSCCGWLINICRRKKELKARTVWLGCPEKCEEKHPRNSIKNQKYNVFTFIPGVLYEQFKFFLNLYFLVISCSQFVPALKIGYLYTYWAPLGFVLAVTMTREAIDEFRRFQRDKEVNSQLYSKLTVRGKVQVKSSDIQVGDLIIVEKNQRIPSDMVFLRTSEKAGSCFIRTDQLDGETDWKLKVAVSCTQQLPALGDLFSISAYVYAQKPQMDIHSFEGTFTREDSDPPIHESLSIENTLWASTIVASGTVIGVVIYTGKETRSVMNTSNPKNKVGLLDLELNRLTKALFLALVALSIVMVTLQGFVGPWYRNLFRFLLLFSYIIPISLRVNLDMGKAVYGWMMMKDENIPGTVVRTSTIPEELGRLVYLLTDKTGTLTQNEMIFKRLHLGTVSYGADTMDEIQSHVRDSYSQMQSQAGGNNTGSTPLRKAQSSAPKVRKSVSSRIHEAVKAIVLCHNVTPVYESRAGVTEETEFAEADQDFSDENRTYQASSPDEVALVQWTESVGLTLVSRDLTSMQLKTPSGQVLSFCILQLFPFTSESKRMGVIVRDESTAEITFYMKGADVAMSPIVQYNDWLEEECGNMAREGLRTLVVAKKALTEEQYQDFESRYTQAKLSMHDRSLKVAAVVESLEREMELLCLTGVEDQLQADVRPTLEMLRNAGIKIWMLTGDKLETATCIAKSSHLVSRTQDIHIFRQVTSRGEAHLELNAFRRKHDCALVISGDSLEVCLKYYEHEFVELACQCPAVVCCRCSPTQKARIVTLLQQHTGRRTCAIGDGGNDVSMIQAADCGIGIEGKEGKQASLAADFSITQFRHIGRLLMVHGRNSYKRSAALGQFVMHRGLIISTMQAVFSSVFYFASVPLYQGFLMVGYATIYTMFPVFSLVLDQDVKPEMAMLYPELYKDLTKGRSLSFKTFLIWVLISIYQGGILMYGALVLFESEFVHVVAISFTALILTELLMVALTVRTWHWLMVVAEFLSLGCYVSSLAFLNEYFGIGRVSFGAFLDVAFITTVTFLWKVSAITVVSCLPLYVLKYLRRKLSPPSYCKLAS
Consider B3, for which the binding entry was “binds”.

B4: ELOVL fatty acid elongase 1 (ELOVL1) (protein, UniProt Q9BW60 1-279)
chain: MEAVVNLYQEVMKHADPRIQGYPLMGSPLLMTSILLTYVYFVLSLGPRIMANRKPFQLRGFMIVYNFSLVALSLYIVYEFLMSGWLSTYTWRCDPVDYSNSPEALRMVRVAWLFLFSKFIELMDTVIFILRKKDGQVTFLHVFHHSVLPWSWWWGVKIAPGGMGSFHAMINSSVHVIMYLYYGLSAFGPVAQPYLWWKKHMTAIQLIQFVLVSLHISQYYFMSSCNYQYPVIIHLIWMYGTIFFMLFSNFWYHSYTKGKRLPRALQQNGAPGIAKVKAN
For the molecule B4, the binding result is given as “binds”.

B5: ATP binding cassette subfamily B member 10 (ABCB10) (protein, UniProt Q9NRK6 106-738)
chain: AGPGAPRLPRARFPGGPAAAAWAGDEAWRRGPAAPPGDKGRLRPAAAGLPEARKLLGLAYPERRRLAAAVGFLTMSSVISMSAPFFLGKIIDVIYTNPTVDYSDNLTRLCLGLSAVFLCGAAANAIRVYLMQTSGQRIVNRLRTSLFSSILRQEVAFFDKTRTGELINRLSSDTALLGRSVTENLSDGLRAGAQASVGISMMFFVSPNLATFVLSVVPPVSIIAVIYGRYLRKLTKVTQDSLAQATQLAEERIGNVRTVRAFGKEMTEIEKYASKVDHVMQLARKEAFARAGFFGATGLSGNLIVLSVLYKGGLLMGSAHMTVGELSSFLMYAFWVGISIGGLSSFYSELMKGLGAGGRLWELLEREPKLPFNEGVILNEKSFQGALEFKNVHFAYPARPEVPIFQDFSLSIPSGSVTALVGPSGSGKSTVLSLLLRLYDPASGTISLDGHDIRQLNPVWLRSKIGTVSQEPILFSCSIAENIAYGADDPSSVTAEEIQRVAEVANAVAFIRNFPQGFNTVVGEKGVLLSGGQKQRIAIARALLKNPKILLLDEATSALDAENEYLVQEALDRLMDGRTVLVIAHRLSTIKNANMVAVLDQGKITEYGKHEELLSKPNGIYRKLMNKQSFISA
As to B5, the binding result was “binds”.

B6: ATP synthase, H+ transporting, mitochondrial F1 complex, epsilon subunit pseudogene 2 (ATP5EP2) (protein, UniProt Q5VTU8 1-51)
chain: MVAYWRQAGLSYIRYSQICAKVVRDALKTEFKANAKKTSGNSVKIVKVKKE
With B6, the binding result is “binds”.

B7: ATP binding cassette subfamily B member 6 (Langereis blood group) (ABCB6) (protein, UniProt Q9NP58 1-842)
chain: MVTVGNYCEAEGPVGPAWMQDGLSPCFFFTLVPSTRMALGTLALVLALPCRRRERPAGADSLSWGAGPRISPYVLQLLLATLQAALPLAGLAGRVGTARGAPLPSYLLLASVLESLAGACGLWLLVVERSQARQRLAMGIWIKFRHSPGLLLLWTVAFAAENLALVSWNSPQWWWARADLGQQVQFSLWVLRYVVSGGLFVLGLWAPGLRPQSYTLQVHEEDQDVERSQVRSAAQQSTWRDFGRKLRLLSGYLWPRGSPALQLVVLICLGLMGLERALNVLVPIFYRNIVNLLTEKAPWNSLAWTVTSYVFLKFLQGGGTGSTGFVSNLRTFLWIRVQQFTSRRVELLIFSHLHELSLRWHLGRRTGEVLRIADRGTSSVTGLLSYLVFNVIPTLADIIIGIIYFSMFFNAWFGLIVFLCMSLYLTLTIVVTEWRTKFRRAMNTQENATRARAVDSLLNFETVKYYNAESYEVERYREAIIKYQGLEWKSSASLVLLNQTQNLVIGLGLLAGSLLCAYFVTEQKLQVGDYVLFGTYIIQLYMPLNWFGTYYRMIQTNFIDMENMFDLLKEETEVKDLPGAGPLRFQKGRIEFENVHFSYADGRETLQDVSFTVMPGQTLALVGPSGAGKSTILRLLFRFYDISSGCIRIDGQDISQVTQASLRSHIGVVPQDTVLFNDTIADNIRYGRVTAGNDEVEAAAQAAGIHDAIMAFPEGYRTQVGERGLKLSGGEKQRVAIARTILKAPGIILLDEATSALDTSNERAIQASLAKVCANRTTIVVAHRLSTVVNADQILVIKDGCIVERGRHEALLSRGGVYADMWQLQQGQEETSEDTKPQTMER
For the molecule B7, the binding result is listed as “binds”.

B8: LMBR1 domain containing 2 (LMBRD2) (protein, UniProt Q68DH5 1-695)
chain: MSGAALGLEIVFVFFLALFLLHRYGDFKKQHRLVIIGTLLAWYLCFLIVFILPLDVSTTIYNRCKHAAANSSPPENSNITGLYATANPVPSQHPCFKPWSYIPDGIMPIFWRVVYWTSQFLTWILLPFMQSYARSGGFSITGKIKTALIENAIYYGTYLLIFGAFLIYVAVNPHLHLEWNQLQTIGIAAANTWGLFLLVLLLGYGLVEIPRSYWNGAKRGYLLMKTYFKAAKLMTEKADAEENLEDAMEEVRKVNESIKYNHPLRKCVDTILKKCPTEYQEKMGRNMDDYEDFDEKHSIYPSEKSLVKLHKQVIYSVQRHRRTQVQWQILLEQAFYLEDVAKNETSATHQFVHTFQSPEPENRFIQYFYNPTFEWYWECLLRPWFYKILAVVLSIFSVIVVWSECTFFSTTPVLSLFAVFIQLAEKTYNYIYIEIACFLSIFFLSICVYSTVFRIRVFNYYYLASHHQTDAYSLLFSGMLFCRLTPPLCLNFLGLTHMDSSISHKNTQPTAYTSIMGSMKVLSFIADGFYIYYPMLVVILCIATYFSLGTRCLNLLGFQQFMGDDDMTSDLVNEGKELIRKEKRKRQRQEEGENRRREWKERYGHNREDSTRNRNIHTDPKESNFSDVNTNRSAFKYTRANNRTERDRIELLQDAEPLDFNAETFTDDPLESESGRYQPGGRYLSMSRSDIFNDV
On to B8, for which the binding entry is “binds”.

B9: Desmocollin-1 (protein, UniProt Q08554-1 135-894)
chain: RWAPIPASLMENSLGPFPQHVQQIQSDAAQNYTIFYSISGPGVDKEPFNLFYIEKDTGDIFCTRSIDREKYEQFALYGYATTADGYAPEYPLPLIIKIEDDNDNAPYFEHRVTIFTVPENCRSGTSVGKVTATDLDEPDTLHTRLKYKILQQIPDHPKHFSIHPDTGVITTTTPFLDREKCDTYQLIMEVRDMGGQPFGLFNTGTITISLEDENDNPPSFTETSYVTEVEENRIDVEILRMKVQDQDLPNTPHSKAVYKILQGNENGNFIISTDPNTNEGVLCVVKPLNYEVNRQVILQVGVINEAQFSKAASSQTPTMCTTTVTVKIIDSDEGPECHPPVKVIQSQDGFPAGQELLGYKALDPEISSGEGLRYQKLGDEDNWFEINQHTGDLRTLKVLDRESKFVKNNQYNISVVAVDAVGRSCTGTLVVHLDDYNDHAPQIDKEVTICQNNEDFAVLKPVDPDGPENGPPFQFFLDNSASKNWNIEEKDGKTAILRQRQNLDYNYYSVPIQIKDRHGLVATHMLTVRVCDCSTPSECRMKDKSTRDVRPNVILGRWAILAMVLGSVLLLCILFTCFCVTAKRTVKKCFPEDIAQQNLIVSNTEGPGEEVTEANIRLPMQTSNICDTSMSVGTVGGQGIKTQQSFEMVKGGYTLDSNKGGGHQTLESVKGVGQGDTGRYAYTDWQSFTQPRLGEKVYLCGQDEEHKHCEDYVCSYNYEGKGSLAGSVGCCSDRQEEEGLEFLDHLEPKFRTLAKTCIKK
For B9, the binding result is “binds”.

B10: Transmembrane protein 59 (TMEM59) (protein, UniProt Q9BXS4 36-323)
chain: EAFDSVLGDTASCHRACQLTYPLHTYPKEEELYACQRGCRLFSICQFVDDGIDLNRTKLECESACTEAYSQSDEQYACHLGCQNQLPFAELRQEQLMSLMPKMHLLFPLTLVRSFWSDMMDSAQSFITSSWTFYLQADDGKIVIFQSKPEIQYAPHLEQEPTNLRESSLSKMSYLQMRNSQAHRNFLEDGESDGFLRCLSLNSGWILTTTLVLSVMVLLWICCATVATAVEQYVPSEKLSIYGDLEFMNEQKLNRYPASSLVVVRSKTEDHEEAGPLPTKVNLAHSEI
Regarding B10, the binding result is given as “binds”.

Values taken from paper PMC8717606.
